Measured values reported in ChEMBL document CHEMBL4296182, “CO-ADD screening of NIH NCI Diversity Set V”.
The list shows a part of the results. Potency and affinity values are given separately.

Test system: Pseudomonas aeruginosa
Conditions: Concentration 20 uM; ASSAY_TEST Inhibition of Bacterial Growth; detection method Absorption (OD600); MEDIA CAMHB; plate type 384well; NBS; CORNING #3640; time 18 hr

Compared with `CC(=O)OC1CCC2(C)C(=CCC3C2CCC2(C)C3CC3OC4(CCC(C)CN4)C(C)C32)C1` (stereo not drawn), `CC1(C)CC[C@]2(C(=O)n3ccnc3)CC[C@]3(C)[C@H](C(=O)C=C4[C@@]5(C)C=C(C#N)C(=O)C(C)(C)[C@@H]5CC[C@]43C)[C@@H]2C1` is lower in Inhibition: 23.32% for the first, 5.52% for the second.

Compared with `O=C1NCCc2c1[nH]c1ccccc21`, `NC(=O)Cc1ccc2c(c1)[nH]c1ccccc12` is higher in Inhibition: -19.46% for the first, 12.38% for the second.

Compared with `C=C(C)c1nc(Oc2ccccc2)nc(Oc2ccccc2)n1`, `c1ccc(-c2nnc(-c3ccccc3)nn2)cc1` is lower in Inhibition: 24.3% for the first, 19.83% for the second.

First: Cn1nc(NC(=O)C(F)(F)F)c2ncc(-c3ccc(Cl)cc3)nc21
Second: Cc1cc(-n2cnc3c(O)ncnc32)ccc1N
The Inhibition of the first is higher: 13.97% for the first, 9.71% for the second.

First: COc1cc(S(N)(=O)=O)c(OC)cc1N
Second: COc1cc2c(cc1OC)C(/C=C/c1ccco1)=NCC2.O=S(=O)(O)O
The Inhibition of the first is lower: 12.8% for the first, 23.17% for the second.

Compared with `CC(=O)c1c(O)c(C)c(O)c2c1OC1=CC(=O)/C(=C(/C)N)C(=O)C12C` (stereo not drawn), `O=C1Cc2cccc(O)c(=O)c2C(=O)O1` is lower in Inhibition: 28.33% for the first, 8.55% for the second.

Going from `CC(C)Cc1nnc(N)s1` to `Nc1nc(=S)ss1`, the Inhibition falls from 15.57% to 5.6%.

Compared with `Cc1cccc(N2CCN(CC(O)COc3ccccc3Cl)CC2)c1` (stereo not drawn), `Cc1c(Cl)ccc2c(C(=O)O)cc(-c3ccccc3)nc12` is lower in Inhibition: 26.87% for the first, 4.75% for the second.

Compared with `NC(=O)NC(=O)c1nccnc1C(=O)O`, `O=C(O)/C=C/C(=O)Nc1cccc2cccnc12` is higher in Inhibition: 12.38% for the first, 12.48% for the second.

Going from `CC(C)=CCC/C(C)=C\C(N)=O` to `CC(=O)/C=C(\C)Nc1ccccc1O`, the Inhibition rises from 17.68% to 19.73%.

Going from `Cc1ccc(CC#N)c(-c2c(CC#N)ccc(C)c2C)c1C` to `CCOC(=O)c1ccc(NC(=O)Oc2cc(C)c(Cl)cc2C(C)C)cc1`, the Inhibition rises from 14.89% to 21.8%.

First: C=CCOc1c(CCC)cc(CCC)cc1C(N)=O
Second: CCC/C(C)=C/c1ccc(CC)cn1
The Inhibition of the first is higher: 6.32% for the first, -17.76% for the second.

Compared with `CCC(CC)c1ncc[nH]1`, `CCCCSc1[nH]cnc2nncc1-2` is higher in Inhibition: 18.15% for the first, 20.63% for the second.

Compared with `O=c1cc2oc3cc(O)c(O)cc3c(-c3ccccc3O)c-2cc1O`, `O=C(O)c1cccc2c1C(=O)c1cccc3snc-2c13` is lower in Inhibition: 20.52% for the first, -6.87% for the second.

Compared with `CC(C)(C)C(=O)/C=C/c1ccc(Oc2ccccc2)cc1`, `O=C(c1ccccc1)C1N=NCC1c1ccc(Cl)cc1` (stereo not drawn) is higher in Inhibition: 7.79% for the first, 10.37% for the second.

First: NC(=O)C1=CC2C3C=CC2(O)C(=O)OC3O1 (stereo not drawn)
Second: NC(=O)c1nc2c([nH]c1=O)CCCC2
The Inhibition of the first is lower: -12.57% for the first, 17.77% for the second.

Compared with `O=c1nc2onnc2c(/C=N\O)[nH]1`, `Oc1nc2[nH]c(Cl)nc(Cl)c-2n1` is higher in Inhibition: 18.09% for the first, 19.66% for the second.

Compared with `COC1OC(CO)C(N=C(C)C)C1O` (stereo not drawn), `CC1CC=C(O)C12OCC(C)(C)CO2` (stereo not drawn) is higher in Inhibition: -2.66% for the first, 11.01% for the second.

Going from `CC1(c2ccc3ccccc3c2)CCC(=O)O1` (stereo not drawn) to `COc1ccccc1NC(=O)c1cc2ccccc2cc1O`, the Inhibition rises from 11.89% to 14.46%.

First: Sc1nccn1-c1c(Cl)cccc1Cl
Second: Oc1nccc(SCc2ccc(Cl)cc2Cl)n1
The Inhibition of the first is lower: 4.56% for the first, 4.81% for the second.

Compared with `N#CCCCCN1CCCC1`, `CCCCN1CCN=C1S` is lower in Inhibition: 18.49% for the first, 14.02% for the second.

First: Cc1c(C(C)(C(=O)O)c2c(C)n(C)c3ccccc23)c2ccccc2n1C
Second: O=C(O)CCN1c2ccccc2Sc2ccccc21
The Inhibition of the first is lower: 6.07% for the first, 13.73% for the second.

Going from `O=C(NN1CCCCC1)NN1CCCCC1` to `CC(=O)NC1(C(=O)O)CCCC1`, the Inhibition rises from 1.63% to 10.87%.

Going from `Cc1cc(C)c2c(SC(C)C)nc(N)nc2n1` to `CCCCNc1cc(Cl)nc(N)n1`, the Inhibition rises from -3.21% to 5.98%.

First: CC1=C2C3OC(=O)C(C)C3CCC2(C)C=C(Cl)C1=O (stereo not drawn)
Second: CC1=CC2(C)NC(=O)C(C)C12 (stereo not drawn)
The Inhibition of the first is lower: -6.7% for the first, 5.83% for the second.

Compared with `Cn1ncc2c(Nc3cccc(Cl)c3)nc(Nc3cccc(Cl)c3)nc21`, `CCOC(=O)c1cc(-c2cccnc2)nc2c(Cl)cc(Cl)cc12` is lower in Inhibition: 20.54% for the first, 11.86% for the second.

Compared with `O=C(O)CCC1(c2ccccc2)NC(=O)NC1=O` (stereo not drawn), `O=C1NC(=O)C(Cc2ccccc2)(c2cccnc2)N1` (stereo not drawn) is lower in Inhibition: 8.96% for the first, 4.41% for the second.

Compared with `CC(=O)OCCn1c([N+](=O)[O-])cnc1/C=[N+](\[O-])C1CCCCC1`, `Cn1cnc([N+](=O)[O-])c1N=C(N)N` is higher in Inhibition: 9.15% for the first, 27.49% for the second.

Compared with `CCCCCCCCCCC(C(=O)O)C1(C(=O)O)CCC(=O)O1` (stereo not drawn), `CCOC(=O)c1[nH]c(C(=O)O)c(OC(=O)CC)c1C` is lower in Inhibition: 14.81% for the first, 0.59% for the second.

Compared with `O=C1NCN(CCO)CN1`, `CC1(C)CCCC2(C)C(OCCO)=CC(=O)C=C12` (stereo not drawn) is lower in Inhibition: 14.64% for the first, 4.75% for the second.

Compared with `Cc1csc(NC(=O)c2ccc(C(=O)Nc3nc(C)cs3)cc2)n1`, `CCCc1nc(NC(=O)c2ccccc2)nc(NC(=O)c2ccccc2)n1` is lower in Inhibition: 19.87% for the first, 3% for the second.

Going from `O=C(O)/C=C\c1cc2c(cc1[N+](=O)[O-])OCO2` to `O=C1OCC/C1=C\c1ccc2c(c1)OCO2`, the Inhibition rises from 9.65% to 15.83%.

Compared with `C/C(=N\NC(N)=O)c1ccc(Cl)c(-n2cccc2)c1`, `O=C(Nc1ccc(Cl)c(Cl)c1)c1ccc(Cl)c(Cl)c1` is higher in Inhibition: 11.76% for the first, 18.88% for the second.

Compared with `COc1ccccc1N1C(=O)CC(Sc2ccccc2N)C1=O` (stereo not drawn), `Clc1ccccc1-c1nc2ccccc2[nH]1` is lower in Inhibition: 28.07% for the first, 9.03% for the second.

Going from `Sc1ncnc2c1cnn2-c1ccccc1` to `OCc1nnn(-c2ccccc2)c1CO`, the Inhibition rises from 10.77% to 29.3%.

First: COCC(O)Cn1ccnc1[N+](=O)[O-] (stereo not drawn) [MISONIDAZOLE]
Second: Cc1cc(C)n(C(=N)NC(=O)c2ccc([N+](=O)[O-])cc2)n1
The Inhibition of the first is higher: 4.11% for the first, -2% for the second.

Compared with `O=C(Nc1ccc(NC(=O)c2ccncc2)cc1)c1ccncc1`, `O=C(Nc1ccc(Nc2ccccc2)cc1)Nc1ccccc1Cl` is higher in Inhibition: 20.31% for the first, 29.15% for the second.

Compared with `CCOc1ccc(NC(=S)NC(=O)c2ccco2)cc1`, `Nc1ccc(OC(=O)Nc2ccc(O)cc2)cc1` is lower in Inhibition: 8.77% for the first, -21.95% for the second.

Going from `Cc1cc2cc3c(=O)[nH]c(=O)cc-3n(CC(O)C(O)C(O)CO)c2cc1C` (stereo not drawn) to `Cn1c(=O)c2nc(CNc3ccc(C(=O)O)cc3)[nH]c2n(C)c1=O`, the Inhibition falls from 18.27% to -15.43%.

First: O=Cc1c[nH]c2ncccc12
Second: Sc1cnnc2ccccc12
The Inhibition of the first is higher: 11.42% for the first, -16.88% for the second.

Compared with `CCCCCc1cccnc1`, `OCCCCc1nccc2c1[nH]c1ccccc12` is lower in Inhibition: 18.72% for the first, -6.37% for the second.

Going from `Sc1ncnc2c1ncn2C1CCCC1` to `Nc1c(Cl)ncnc1NCCO`, the Inhibition falls from 16.55% to 6.69%.

First: Cc1ccc(/C=C2\CCOC2=O)cc1
Second: O=C1NC(=O)C2(CCc3ccccc32)N1 (stereo not drawn)
The Inhibition of the first is higher: 10.2% for the first, 6.91% for the second.

Going from `c1cncc(-c2nc3ccccc3s2)c1` to `OCc1ncc(-c2ccccc2)s1`, the Inhibition rises from -23% to 5.14%.

First: N#Cc1ccc(NC2c3ccccc3CC2O)cc1 (stereo not drawn)
Second: CCOC(=O)C(Cc1ccc(O)cc1)Nc1nc2ccccc2o1 (stereo not drawn)
The Inhibition of the first is lower: -23.24% for the first, 17.83% for the second.

First: Nc1ccc(C(=O)Oc2ccc([N+](=O)[O-])cc2)cc1
Second: O=[N+]([O-])c1ccc(-c2ncc(-c3ccc(Br)cc3)o2)cc1
The Inhibition of the first is lower: 11.01% for the first, 16.39% for the second.

Compared with `Oc1ccc(Cl)nn1`, `NC(S)=Nc1cccc(Cl)c1` is lower in Inhibition: -2.21% for the first, -3.82% for the second.

Going from `O=C(CSc1nc2ccc([N+](=O)[O-])cc2s1)c1ccc2ccccc2c1` to `CCc1nc(N)nc(N)c1-c1ccc(N(C)Cc2ccccc2)c([N+](=O)[O-])c1`, the Inhibition falls from 19.2% to 4.08%.

First: CN1C(=C=Cc2cc(I)c(O)c(I)c2)C(C)(C)c2ccccc21
Second: CC1(C)CC(=O)C(CC(=O)c2ccccc2)=C(NNC(=N)N)C1
The Inhibition of the first is higher: 18.95% for the first, 12.13% for the second.

First: CCCN(CCC)c1ccc(/C=C/c2ccc3cc(OCC)ccc3n2)cc1
Second: O=C(c1cccnc1)c1cc(-c2ccccn2)c(=O)n2ccccc12
The Inhibition of the first is lower: 24.12% for the first, 30.02% for the second.

Compared with `Cc1ccc2c(c1)C(=C(C#N)C#N)CCN2`, `Cc1nc2c(O)cccc2cc1CO` is lower in Inhibition: 12.59% for the first, 5.29% for the second.

Compared with `NNC(=O)c1nnsc1-c1csnn1`, `CCOC(=O)c1nn(C)c2[nH]c(=O)n(C)c(=O)c12` is higher in Inhibition: -30.83% for the first, 4.41% for the second.

Compared with `CCOCCc1c(O)nc(SC)nc1O`, `CCOC(=O)c1c(C)oc(C)c(C(=O)OCC)c1=O` is lower in Inhibition: 2.08% for the first, -4.12% for the second.

Going from `O=C1OC(CN(Cc2ccccc2)Cc2ccccc2)CN1/N=C/c1ccc([N+](=O)[O-])o1` (stereo not drawn) to `O=C(Nc1ccccc1-c1ccccc1)C(=O)Nc1ccccc1-c1ccccc1`, the Inhibition falls from 17.78% to -5.08%.

Going from `CC(OC(=O)Nc1cccc(Cl)c1)C(=O)O` (stereo not drawn) to `C=CCN=C(S)Nc1cccc([N+](=O)[O-])c1`, the Inhibition falls from 20.28% to -12.2%.

First: C#CC(C)OCC1CNC(=S)O1 (stereo not drawn)
Second: CC1(CN2CCCC2)CCC(NC(=O)C(c2ccccc2)c2ccccc2)C(C)(C)O1 (stereo not drawn)
The Inhibition of the first is lower: 12.09% for the first, 21.96% for the second.

Compared with `CC(=O)OC1C=CCC2C(=O)c3cccc(O)c3C(O)C12` (stereo not drawn), `COc1cccc2c1C(CO)N1C(C#N)C3CC(C(=O)O)C(C1C2)N3C` (stereo not drawn) is lower in Inhibition: 7.59% for the first, -11.34% for the second.

Going from `COc1cc(-c2ccc(Nc3ccccc3C(=O)O)c(OC)c2)ccc1Nc1ccccc1C(=O)O` to `O=C(/C=C/C(=O)N1CCc2ccccc2C1)N1CCc2ccccc2C1`, the Inhibition falls from 8.14% to -1.48%.

Going from `COC(=O)CC1(C(=O)OC)Nc2cc(Cl)c(Cl)cc2S(=O)(=O)N1O` (stereo not drawn) to `CC1=CC(=O)C(/C(C)=N/c2ccccc2Cl)C(=O)O1` (stereo not drawn), the Inhibition falls from 20.28% to -12.96%.
